Assay: Wet film wetting characteristics of emulsions made with different solvents
Design: key: Wetted: If the film is continuous without breaks, it is rated as "wetted"; Dewetted: If, however, the film is discontinuous with breaks in it, it is rated as "dewetted"
Settings: emulsion with 50 parts of the solvent per 100 parts epoxy resin; wire wound bar application to lubricated electrolytic tinplated steel

## CCCCOCCO [Butyl Cellosolve]
  Film Wetting Characteristic: Dewetted

## CCOCCO [Ethyl Cellosolve]
  Film Wetting Characteristic: Dewetted

## CCCCCC(=O)CC [Ethyl amyl ketone]
  Film Wetting Characteristic: Dewetted

## CCCCCCOCCOCCO [Hexyl Carbitol, diethylene glycol monohexyl ether]
  Film Wetting Characteristic: Wetted

## CCCCCCOCCO [Hexyl Cellosolve, 2-Hexoxyethanol]
  Film Wetting Characteristic: Wetted

## COCCO [Methyl Cellosolve]
  Film Wetting Characteristic: Dewetted

## CCC(C)=O [Methyl ethyl ketone]
  Film Wetting Characteristic: Dewetted
